PubChem BioAssay AID1259254, NCATS – 2017
The whole screen tested about 59,000 reagents; shown is a random part of them. Over the whole deposit, about 1,550 (2.6%) are marked active. 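G2 share is only a proxy for re-replication; each gene was hit by three separate siRNAs, and active genes were retested.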 Entries without a mark were called inactive. The numbers tell different reagents against one gene apart. Further read-outs or replicates are left out here. The record does not give: the amount of reagent.

Aim: 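Finding genes that stop cells copying their DNA twice in one cycle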 (primary screen)
Cell system: human HCT116 colorectal cancer cells
Reagents: single siRNA against human genes
Time to read-out: 3 days
Measurement: 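Imaged Hoechst DNA stain sorts each cell into a cycle phase by DNA amount; per plate, G2 fraction set to 0% for non-targeting and 100% for GMNN siRNA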
Direction: G2 robust z-score: higher = more G2 cells, more excess DNA replication
Hit rule: 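Active siRNAs have a G2 robust z of 5 or more median absolute deviations over the median, which in these data means about 38% or higher of GMNN control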

CUL3 (cullin 3) #1 → G2 robust z-score = 3.57
CUL3 (cullin 3) #2 → G2 robust z-score = 0.136
CUL3 (cullin 3) #3 → G2 robust z-score = 1.44
WDR87 (WD repeat domain 87) #1 → G2 robust z-score = 0.763
WDR87 (WD repeat domain 87) #2 → G2 robust z-score = 3.16
WDR87 (WD repeat domain 87) #3 → G2 robust z-score = -0.213
MYOD1 (myogenic differentiation 1) #1 → G2 robust z-score = 0.826
MYOD1 (myogenic differentiation 1) #2 → G2 robust z-score = -0.234
MYOD1 (myogenic differentiation 1) #3 → G2 robust z-score = -1.19
FAM161B (FAM161 centrosomal protein B) #1 → G2 robust z-score = 1.77
FAM161B (FAM161 centrosomal protein B) #2 → G2 robust z-score = 1.47
FAM161B (FAM161 centrosomal protein B) #3 → G2 robust z-score = -0.448
ACLY (ATP citrate lyase) #1 → G2 robust z-score = -0.104
ACLY (ATP citrate lyase) #2 → G2 robust z-score = -0.907
ACLY (ATP citrate lyase) #3 → G2 robust z-score = -0.0366
RAB15 (RAB15, member RAS oncogene family) #1 → G2 robust z-score = 5.25 (active)
RAB15 (RAB15, member RAS oncogene family) #2 → G2 robust z-score = 1.41
RAB15 (RAB15, member RAS oncogene family) #3 → G2 robust z-score = 0.327
SNAI1 (snail family transcriptional repressor 1) #1 → G2 robust z-score = 0.659
SNAI1 (snail family transcriptional repressor 1) #2 → G2 robust z-score = -0.704
SNAI1 (snail family transcriptional repressor 1) #3 → G2 robust z-score = 1.02
A3GALT2 (alpha 1,3-galactosyltransferase 2) #1 → G2 robust z-score = -0.789
A3GALT2 (alpha 1,3-galactosyltransferase 2) #2 → G2 robust z-score = -0.523
A3GALT2 (alpha 1,3-galactosyltransferase 2) #3 → G2 robust z-score = -0.178

Hits (from the list above):
RAB15 (RAB15, member RAS oncogene family) #1 → G2 robust z-score = 5.25 (active)
